Assay results as given in publication PMC11882939.
Results are given in words; binding and its absence hold for the method and conditions named. Binding seen in cells or lysates may run through a third protein.

Chains of the proteins cited; added tags and fusions are not shown.
UniProt Q9NXR5: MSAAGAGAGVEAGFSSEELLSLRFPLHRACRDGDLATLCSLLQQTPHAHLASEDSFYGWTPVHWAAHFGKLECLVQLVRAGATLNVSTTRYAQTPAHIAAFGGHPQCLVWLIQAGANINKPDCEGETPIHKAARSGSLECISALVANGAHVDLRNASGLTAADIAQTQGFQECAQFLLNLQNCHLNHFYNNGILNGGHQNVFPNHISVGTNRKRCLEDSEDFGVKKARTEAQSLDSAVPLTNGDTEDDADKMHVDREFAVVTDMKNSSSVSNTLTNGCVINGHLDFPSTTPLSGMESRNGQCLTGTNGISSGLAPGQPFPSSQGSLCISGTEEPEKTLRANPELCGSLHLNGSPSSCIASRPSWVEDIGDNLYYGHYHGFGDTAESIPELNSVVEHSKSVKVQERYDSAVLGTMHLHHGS
UniProt P01106: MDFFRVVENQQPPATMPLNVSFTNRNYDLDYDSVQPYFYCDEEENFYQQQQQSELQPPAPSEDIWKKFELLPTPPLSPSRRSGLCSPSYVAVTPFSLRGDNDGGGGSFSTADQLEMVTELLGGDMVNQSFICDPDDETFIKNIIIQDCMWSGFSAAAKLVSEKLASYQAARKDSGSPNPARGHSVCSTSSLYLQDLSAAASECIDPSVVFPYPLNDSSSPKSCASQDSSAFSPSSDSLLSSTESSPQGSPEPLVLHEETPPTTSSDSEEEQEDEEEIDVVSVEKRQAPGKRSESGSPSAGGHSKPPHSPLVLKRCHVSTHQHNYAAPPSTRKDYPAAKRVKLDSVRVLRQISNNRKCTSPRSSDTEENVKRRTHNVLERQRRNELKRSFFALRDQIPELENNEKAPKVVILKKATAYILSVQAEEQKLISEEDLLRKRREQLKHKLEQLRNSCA

Molecular target: Flag-ANKRD10-1 (UniProt Q9NXR5)
Experiment: co-IP; 293T cells transfected with HA-MYC and Flag-ANKRD10-1 or Flag-ANKRD10-2 plasmids for 48 h; IP with anti-FLAG or anti-HA antibodies, protein A/G magnetic beads, 12 h at 4 °C, Western blot

Q: Which binding does the source give for HA-MYC (from UniProt P01106 1-454) here?
A: no binding
